PubChem BioAssay (NCATS)
The list shows a part of the results. The main result of the screen is listed elsewhere. These columns were measured beside it and carry no call. Compounds called inactive in the main read-out are mostly missing here. Potencies come from curve fits of mixed quality, noted in brackets.

Assay: qHTS for identification of novel therapeutic agents for treatment of microphthalmiaassociated transcription factor (MiT) renal cell carcinoma (RCC) (AID 1963991)
Conditions: CellTiter-Glo, 48 h; for z-score: stronger effect = lower value
From the text: PI: Marston Linehan Ph.D.
Urologic Oncology Branch, Center for Cancer Research (CCR)
National Cancer Institute (NCI), National Institute of Health (NIH), Bethesda, Maryland
MiT-Renal Cell Carcinoma (RCC) is characterized by genomic translocations involving microphthalmia-associated transcription factor (MiT) family members TFE3, TFEB, or MITF. MiT-RCC represents a specific subtype of sporadic RCC that is predominantly seen in young patients and can present with heterogeneous histological features making diagnosis challenging. Moreover, the disease biology of this aggressive cancer is poorly understood and there is no accepted standard of care therapy for patients with advanced disease. Tumor-derived cell lines have been established from human TFE3-RCC providing useful models for preclinical studies. TFE3-RCC tumor derived cell lines and their tissues of origin were characterized by IHC and gene expression analyses. An unbiased high-throughput drug screen was performed to identify novel therapeutic agents for treatment of MiT-RCC. Potential therapeutic candidates were validated in in vitro and in vivo preclinical studies. Mechanistic assays were conducted to confirm the on-target effects of drugs. The results of a high-throughput small molecule drug screen utilizing three TFE3-RCC tumor-derived cell lines identified five classes of agents with potential pharmacological efficacy, including inhibitors of phosphoinositide-3-kinase (PI3K) and mechanistic target of rapamycin (mTOR), and several additional agents, including the transcription inhibitor Mithramycin A. Upregulation of the cell surface marker GPNMB, a specific MiT transcriptional target, was confirmed in TFE3-RCC and evaluated as a therapeutic target using the GPNMB-targeted antibody-drug conjugate CDX-011. […] The results of the high-throughput drug screen and validation studies in TFE3-RCC tumor-derived cell lines have provided in vitro and in vivo preclinical data supporting the efficacy of the PI3K/mTOR inhibitor.
SEQUENCE No. (e.g., 1, 2, 3, etc.); […] (e.g., Cells, Incubation, Reagent, etc.); VALUE; DESCRIPTION.
1; Cells; 3 uL; white, solid-bottom Grenier assay plate.
2; Compounds; 23 nL; Kalypsis pin-tool (Wako USA).
3; Incubation; 48 hr; 37 C, 5% CO2, 95% humidity.
4; Reagent; 3 uL; CellTiter-Glo reagent (Promega).
5; Incubation; 15 min; room temperature.
6; Detection; Luminescence; ViewLux plate reader (PerkinElmer).
NOTES (numbers refer to Sequence numbers above)
1. Quantitative high-throughput screening (qHTS) of 1912 pharmacologically defined small molecule compounds was conducted on three TFE3-fusion cell lines bearing three different fusion partners (UOK109, UOK124, UOK145). Briefly, 500 cells in complete growth media were plated into white, solid-bottom, 1536-well tissue culture treated plates (Grenier Cat. 789173-F) using a Multidrop Combi cassette dispenser.
2. Twenty-three nanoliter of 1912 pharmacologically defined small molecule compounds of the NCATS Mechanism Interrogation PlatE (MIPE) version 4.0 were added to each assay plate using a Pintool Dispenser (Wako) equipped with 1536 pin head.
3. Plates were covered with stainless steel gasketed lids and incubated for 48 hours at standard cell culture conditions.
4. Viability was assessed by adding 3uL of CellTiter-Glo detection reagent (Promega).
5. Plates were covered with gasket lids and incubated for 15 minutes at room temperature.
6. Luminescence was measured on a ViewLux plate reader (PerkinElmer). Post-screen data processing used DMSO controls as 100% viability and empty wells as 0% viability and dose response curve fitting was done for all 11 concentrations for each compound.

[1] = TFE3-RCC UOK109 viability, measured here: UOK109 Z-AUC
[2] = TFE3-RCC viability, measured here: UOK124 Z-AUC
[3] = TFE3-RCC viability, measured here: UOK124 cell viability
[4] = TFE3-RCC viability, measured here: UOK145 Z-AUC
[5] = TFE3-RCC viability, measured here: UOK145 cell viability

Row | Structure (SMILES) | z-score [1] | z-score [2] | AC50 [3] | z-score [4] | AC50 [5]
1 | C=C[C@@H]1CN2CCC1C[C@H]2[C@H](O)c1ccnc2ccccc12 (stereo partly drawn) | 0.472 | 0.168 | 37.2 µM [falling, single point] | -0.216 | 29.6 µM [falling, single point]
2 | Fc1ccc(C(OCCN2CCN(CCCc3ccccc3)CC2)c2ccc(F)cc2)cc1 | 0.875 | -0.313 | 16.6 µM [falling, partial curve] | 0.14 | 26.4 µM [falling, single point]
3 | O=C(NCC1CCOCC1)c1cnc(Nc2ccc(Cl)cc2Cl)nc1C(F)(F)F | 0.22 | 0.933 |  | -0.366 | 10.5 µM [falling, full curve]
4 | Cc1sc2c(c1C)C(c1ccc(Cl)cc1)=N[C@@H](CC(=O)OC(C)(C)C)c1nnc(C)n1-2 | -1.78 | -0.0542 | 8.33 µM [falling, partial curve] | -0.727 | 13.2 µM [falling, partial curve]
5 | C[C@]12CC[C@H]3[C@@H](CC[C@@]45O[C@H]4C(O)=C(C#N)C[C@]35C)[C@H]1CC[C@H]2O | -0.101 | 0.465 | 0.00105 µM [rising, full curve, poor fit] | 0.455 | 
6 | O=c1[nH]c2ccccc2n1C1CCN(Cc2ccc(-c3[nH]c4cc5ncnc5cc4nc3-c3ccccc3)cc2)CC1 | 0.115 | 0.351 | 9.35 µM [falling, partial curve] | -0.407 | 13.2 µM [falling, partial curve]
7 | C[C@@H]1[C@@H](CC(C[C@H]2O[C@@H]3O[C@]4(C)CC[C@@H]5[C@H](C)CC[C@@H]([C@H]2C)[C@@]35OO4)C[S+](=O)([O-])c2ccc(COC(=O)N(C)C)cc2)O[C@@H]2O[C@]3(C)CC[C@H]4[C@H](C)CC[C@@H]1[C@@]24OO3 (stereo partly drawn) | -0.246 | -0.644 | 0.526 µM [falling, full curve] | -0.159 | 1.48 µM [falling, full curve]
8 | CN(C)CCN(C)CCc1ccc(Cl)c(Cl)c1 | 0.761 | 0.878 | 14.8 µM [falling, partial curve, poor fit] | 0.702 | 
9 | O=C(N[C@H]1CN2CCC1CC2)c1ccc(Cl)cc1 | -0.153 | 0.194 |  | 0.286 | 8.33 µM [falling, full curve]
10 | CC(C)(O)C=CC(=O)[C@](C)(O)[C@H]1[C@H](O)C[C@]2(C)[C@@H]3CC=C4[C@@H](C=C(O)C(=O)C4(C)C)[C@]3(C)C(=O)C[C@@]12C |  |  | 0.166 µM [falling, full curve] |  | 0.148 µM [falling, full curve]

Some entries already given with just z-score [2]:
Row	Structure (SMILES)	z-score [2]
1	C=C[C@@H]1CN2CCC1C[C@H]2[C@H](O)c1ccnc2ccccc12 (stereo partly drawn)	0.168
9	O=C(N[C@H]1CN2CCC1CC2)c1ccc(Cl)cc1	0.194
